Data as given in PubChem BioAssay AID504804 (Drosophila RNAi Screening Center, 2011)
Screen: 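Knock-downs shielding fly cells from apoptosis caused by DNA damage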 (primary screen). System: Drosophila Kc cells. Reagents: long dsRNA against Drosophila genes, 0.5 µg dsRNA per well. Time to read-out: 96 h (48 h knock-down, then 48 h drug). Challenge: doxorubicin 5 µg/ml for 48 h, added 48 h after dsRNA. Read-out: 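Viability measured as cellular ATP by luminescence after 48 h knock-down then 48 h doxorubicin at 5 µg/ml; unnormalised plate counts for each replicate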. Reading the numbers: raw ATP luminescence: higher = more viable cells, protection from doxorubicin. Call rule: 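Active when both duplicate wells lie at least 2 SD above the plate mean and protection is confirmed by rescreening and independent dsRNAs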.
In all, the deposit lists about 19,000 reagents; shown is an unselected part of those with a known target gene and a result. Over the whole deposit, 47 (0.25%) were called active. 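Signals are raw, not normalised; exact z-scores behind calls not deposited; actives needed confirmation, so some wells reaching 2 SD are inactive.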 A number with no mark means an inactive call. Reagents against one gene are numbered here. A plus sign joins genes that one reagent is predicted to hit.

{"gene knocked down": "yip3 (yippee interacting protein 3)", "reagent": 1, "raw ATP luminescence, replicate 1": 35940, "raw ATP luminescence, replicate 2": 45627}
{"gene knocked down": "HmgD (High mobility group protein D)", "reagent": 1, "raw ATP luminescence, replicate 1": 30733, "raw ATP luminescence, replicate 2": 38510}
{"gene knocked down": "CG17085 (retired record)", "reagent": 1, "raw ATP luminescence, replicate 1": 41367, "raw ATP luminescence, replicate 2": 90190}
{"gene knocked down": "CG17085 (retired record)", "reagent": 2, "raw ATP luminescence, replicate 1": 36003, "raw ATP luminescence, replicate 2": 70630}
{"gene knocked down": "Prosbeta2R2 (Proteasome beta2 subunit-related 2)", "reagent": 1, "raw ATP luminescence, replicate 1": 63657, "raw ATP luminescence, replicate 2": 58187}
{"gene knocked down": "CG14929 + CG4970", "reagent": 1, "raw ATP luminescence, replicate 1": 39820, "raw ATP luminescence, replicate 2": 77873}
{"gene knocked down": "CG14929 + CG4970", "reagent": 2, "raw ATP luminescence, replicate 1": 40893, "raw ATP luminescence, replicate 2": 75580}
{"gene knocked down": "CG34267", "reagent": 1, "raw ATP luminescence, replicate 1": 1.92e5, "raw ATP luminescence, replicate 2": 1.59e5}
{"gene knocked down": "CG31827 + CG18478", "reagent": 1, "raw ATP luminescence, replicate 1": 87817, "raw ATP luminescence, replicate 2": 87950}
{"gene knocked down": "CG12641 (retired record)", "reagent": 1, "raw ATP luminescence, replicate 1": 1.70e5, "raw ATP luminescence, replicate 2": 2.17e5}
{"gene knocked down": "wol (wollknaeuel)", "reagent": 1, "raw ATP luminescence, replicate 1": 1.05e5, "raw ATP luminescence, replicate 2": 69790}
{"gene knocked down": "Past1 (Putative Achaete Scute Target 1)", "reagent": 1, "raw ATP luminescence, replicate 1": 47073, "raw ATP luminescence, replicate 2": 52737}
{"gene knocked down": "SCAP (SREBP cleavage activating protein)", "reagent": 1, "raw ATP luminescence, replicate 1": 72180, "raw ATP luminescence, replicate 2": 46430}
{"gene knocked down": "SCAP (SREBP cleavage activating protein)", "reagent": 2, "raw ATP luminescence, replicate 1": 62343, "raw ATP luminescence, replicate 2": 61973}
{"gene knocked down": "CG15528", "reagent": 1, "SD above plate mean": "at least 2 SD above plate mean", "raw ATP luminescence, replicate 1": 73370, "raw ATP luminescence, replicate 2": 73770}
{"gene knocked down": "CG4988", "reagent": 1, "raw ATP luminescence, replicate 1": 42160, "raw ATP luminescence, replicate 2": 75670}
{"gene knocked down": "CG9861", "reagent": 1, "raw ATP luminescence, replicate 1": 92220, "raw ATP luminescence, replicate 2": 88870}
{"gene knocked down": "Lk6 (Lk6 kinase)", "reagent": 1, "raw ATP luminescence, replicate 1": 2.19e5, "raw ATP luminescence, replicate 2": 1.90e5}
{"gene knocked down": "Lk6 (Lk6 kinase)", "reagent": 2, "raw ATP luminescence, replicate 1": 57127, "raw ATP luminescence, replicate 2": 24517}

2 entries from above, limited to “raw ATP luminescence, replicate 2”:
CG14929 + CG4970 #1	77873
CG14929 + CG4970 #2	75580
